Laboratory results taken from PMC6333852.
These are yes or no findings as the source states them, for the method shown. Binding seen in cells or lysates may run through a third protein. Some entries that bind do so weakly or less than the wild type.

How the values were obtained:
[1] = molecular target: epidermal growth factor receptor (EGFR) (human (endogenous in hBMECs)) (UniProt P00533); assay: co-IP; anti-EGFR antibody immunoprecipitation from lysates of serum-starved hBMECs, uninfected or infected (E. coli PCN033, RS218 or S. suis SC19, MOI 10, over time), with or without Cytochalasin D pretreatment; western blotting
[2] = molecular target: α-actinin-4 (ACTN4) (human (endogenous in hBMECs)) (UniProt O43707); assay: co-IP; anti-ACTN4 antibody immunoprecipitation from lysates of hBMECs, uninfected or infected (PCN033, RS218 or SC19), with or without AG1478 pretreatment; western blotting

binding [1] | binding [2] | Substance
binds | – | α-actinin-4 (ACTN4) (from UniProt O43707 1-911)
– | binds | epidermal growth factor receptor (EGFR) (from UniProt P00533 25-1210)
